# Assay results as given in PubChem BioAssay AID1347075 (National Center for Advancing Translational Sciences (NCATS), 2019).
# Screen size: about 400,000 compounds; about 5,500 (1.4%) were called active. Inconclusive results, whose numbers are uncertain, are shown with a selection of clear calls. Calls come from the whole dose curve; as a rule, active = well fitted cell-killing curve with a large enough effect; inconclusive = small, poorly fitted or top-dose-only effect, or effect the other way; inactive = flat fitted curve, though single readings scatter. A potency beside an inconclusive call is a rough fit, not a confirmed value.
# Experiment: qHTS assay for MDR1-selective chemotherapeutics: Primary screen using the parental adenocarcinoma cell KB-3-1; note: nearly all actives have a fitted effect of over 60% in size
# Settings: KB-3-1 viability, CellTiter-Glo ATP luminescence, 72 h; activity change, negative = cytotoxic: at 46.1 µM (top of the series)
# Outline: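 Screening of KB-3-1 cells (DMEM, 10% FBS, phenol-red free) ran from lowest to highest compound concentration; after 72 h at 37 °C viability was read luminescently and curves fitted.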
# % is set by controls: 0 for no effect and ±100 for the full control effect; potency is the fitted concentration of half-maximal effect.
SMILES,"activity change, negative = cytotoxic",Potency
Cc1cc(C)c(NC(=O)Cn2c(=O)n(-c3cccc(C(F)(F)F)c3)c(=O)c3c(C)c(C)sc32)c(C)c1,inconclusive: 35.9%,–
Cc1ccc(NC(=O)c2noc(C(C)C)c2[N+](=O)[O-])cc1,–,"inconclusive: 20.6 µM [cytotoxic, single point]"
CCc1ccccc1Nc1nn2c(=O)c3ccc(C(=O)NCc4ccc(C)cc4)cc3nc2s1,–,active: 2.91 µM
COc1ccc(-c2sc3cc4c(cc3c2C#CCO)OCO4)cc1,–,"inconclusive: 23.1 µM [cytotoxic, single point]"
COC(=O)c1cc(/C=C/c2ccccc2)[nH]n1,–,"inconclusive: 18.4 µM [cytotoxic, single point]"
Cc1ccccc1-n1nc2c(c1NC(=O)c1c(-c3ccccc3Cl)noc1C)CS(=O)(=O)C2,–,inactive
COc1cccc(C=NNC(=O)C(C)SC(C)C(=O)NN=Cc2cccc(OC)c2)c1 (configuration not stated),–,inactive
Cc1ccc2c(c1)[C@H]1[C@H](CO2)[C@H](c2ccccc2)[C@]2(C)C(=O)N(Cc3ccc(F)cc3)CC(=O)N12,–,"inconclusive: 32.6 µM [cytotoxic, single point]"
C#CC[N+]1(CC#Cc2ccc(C)cc2)CCCCC1,–,"inconclusive: 18.4 µM [cytotoxic, partial curve, poor fit]"
O=C(CSc1nncn1-c1ccccn1)Nc1ccccc1Cl,inconclusive: 6.69%,–
COc1ccc(OCc2ccc(-c3nc(C#N)c(N4CCC(C)CC4)o3)o2)cc1,–,"inconclusive: 29.1 µM [cytotoxic, single point]"
S=C1NC[C@H](Cc2ccccc2)N1CCCCC1CCCCC1,–,inactive
C=CCNC(=S)NNC(=O)c1ccc(Br)cc1,–,active: 14.6 µM
O=[N+]([O-])c1ccc(NS(=O)(=O)N2CCOCC2)cc1,–,inactive
Cc1ccc(CNc2ncccc2-c2nc3cc(Cl)ccc3o2)cc1,–,inactive
COc1cc(NC(=S)N2CCN(C)CC2)c(OC)cc1Cl,–,"inconclusive: 29.1 µM [rising, single point]"
CN(C)C=Nc1ncc2c([nH]c3ccccc32)c1C#N,–,"inconclusive: 16.4 µM [cytotoxic, single point]"
Cc1ccc(O)c(CNc2cnc3ccccc3c2)c1,–,"inconclusive: 29.1 µM [cytotoxic, partial curve, poor fit]"
CCc1sc(C(=O)N(CCOC)c2c(N)n(Cc3ccccc3)c(=O)[nH]c2=O)cc1C,–,inactive
CCC(CC)=N/N=C/c1c(O)n(CC)c2cc(C3=NNC(=O)CC3)ccc12,–,inactive
CCOc1ccc(Oc2c(/C=N/NC(C)=O)c(C)nn2-c2ccccc2)cc1,–,inactive
COc1ccc(NC(=O)C2(C)Cc3c(-c4ccc(N(C)C)cc4)ccnc3O2)cn1 (configuration not stated),–,"inconclusive: 29.1 µM [cytotoxic, single point]"
Cc1sc2nc(SCC(=O)Nc3cccc(S(N)(=O)=O)c3)[nH]c(=O)c2c1C,–,"inconclusive: 23.1 µM [rising, single point]"
COC(=O)CSc1nnc(-c2ccccc2OC)o1,–,inactive

SMILES,"activity change, negative = cytotoxic",Potency
CCCn1nc(C(=O)Nc2ccc3c(c2)OCO3)c2ccccc2c1=O,–,inactive
COCCNC(=S)N1CCN(Cc2ccc3c(c2)OCO3)CC1,–,inactive
Oc1c(Cl)cc(Cl)cc1/C=C/c1ccc2cccc(O)c2n1,–,"inconclusive: 23.1 µM [cytotoxic, partial curve, poor fit]"
c1ccc(CN2CCN(CCOCCOc3ccc4c(c3)CCC4)CC2)cc1,–,"inconclusive: 29.1 µM [cytotoxic, single point]"
O=C(CSc1nc2ccc([N+](=O)[O-])cc2[nH]1)c1ccc2ccccc2c1,–,"inconclusive: 29.1 µM [cytotoxic, single point]"
CCCN(CC1CC1)C(=O)COC(=O)c1[nH]c(C)c(C(=O)OCC)c1C,–,"inconclusive: 8.2 µM [cytotoxic, partial curve]"
COC(=O)c1ccc(CSCc2ccc(C(=O)OC)o2)o1,–,inactive
COc1ccc2[nH]c(=O)c(CN(C(=O)c3cccc(Cl)c3)c3ccccc3OC)cc2c1,–,inactive
CS(=O)(=O)N1CCc2cc(S(=O)(=O)NCc3ccccc3Cl)ccc21,–,inactive
O=C1NC(=O)C2(Br)Nc3ccc(Br)cc3C(=O)C2N1 (configuration not stated),–,inactive
Cc1cccc(Cn2c(C)c(C)c3cc(C(=O)NCc4ccco4)ccc32)c1,–,"inconclusive: 29.1 µM [cytotoxic, partial curve, poor fit]"
CC1(C)C2CCC(CN=C(N)CSS(=O)(=O)O)C1C2 (configuration not stated),–,"inconclusive: 1.84 µM [cytotoxic, partial curve, poor fit]"
Cc1ccc(S(=O)(=O)N2CCCOC2CNC(=O)C(=O)NCCC2=CCCCC2)cc1 (configuration not stated),–,"inconclusive: 29.1 µM [cytotoxic, single point]"
Cc1ccc2c(CN(C)Cc3ccc(Cl)cc3)cc(=O)oc2c1,–,inactive
CCOc1ccc(C(C)=O)cc1COc1cccnc1[N+](=O)[O-],–,"inconclusive: 23.1 µM [cytotoxic, single point]"
O=C(CN1CCN(Cc2ccc(F)cc2Cl)S1(=O)=O)Nc1ccc(F)cc1,–,inactive
O=C(/C=C/c1ccccc1Cl)NCCc1ccccc1,–,inactive
Cc1cccc(-n2c(-c3ccco3)nc3c(cnn3-c3ccccc3C)c2=O)c1,–,"inconclusive: 18.4 µM [cytotoxic, single point]"
Cc1ccc(C(=O)C(C)OC(=O)Cc2n[nH]c(=O)c3ccccc23)cc1 (configuration not stated),–,"inconclusive: 23.1 µM [cytotoxic, single point]"
Cc1cc(C)n(C(=O)/C(C#N)=N\Nc2ccccc2[N+](=O)[O-])n1,–,inactive
COc1cc2c(C#N)c(N3CCN(c4ccccc4OC)CC3)nc(N)c2c(N)n1,–,"inconclusive: 32.6 µM [cytotoxic, single point]"
Cc1nn(C(=O)c2ccccc2)c(C)c1Sc1ccc(Cl)cc1,–,"inconclusive: 23.1 µM [cytotoxic, single point]"
Cc1ccccc1-n1nc(CSc2nc3ccccc3[nH]2)c(-c2ccccc2)c1N,–,"inconclusive: 29.1 µM [cytotoxic, single point]"

# 3 compounds from above, ordered by count of non-hydrogen atoms, falling:
SMILES,"activity change, negative = cytotoxic",Potency
O=C(CSc1nc2ccc([N+](=O)[O-])cc2[nH]1)c1ccc2ccccc2c1,–,"inconclusive: 29.1 µM [cytotoxic, single point]"
Cc1nn(C(=O)c2ccccc2)c(C)c1Sc1ccc(Cl)cc1,–,"inconclusive: 23.1 µM [cytotoxic, single point]"
O=C(/C=C/c1ccccc1Cl)NCCc1ccccc1,–,inactive
